The values below come from the supplement of paper PMC10338343.

± gives the standard deviation. Only a part is listed here, and it is no random draw. Many entries were measured with a wide error.
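Note: 1 nM active piRISC with 0.1 nM target library at 33 °C single turnover.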

For this test, the system named is MILI (PIWIL2) piRISC loaded with L1MC piRNA (26 nt). Put plainly: pre-steady-state target cleavage rate (min^-1); MIWI and MILI are mouse PIWI proteins and EfPiwi is from a freshwater sponge; tags in brackets are library labels; higher = faster piRNA-guided slicing of the target. The following applies: guide: L1MC piRNA 5'p-UAACUAAAUACUAUGCAAGCUGUAGG; auxiliary factor: none (no GTSF1). The procedure, abridged: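 In this Cleave-'n-Seq assay, uncleaved targets were sequenced and normalised to depth and to weakly complementary targets. They came from a transcribed, DNA-blocked target RNA library […] mixed with 1 nM active affinity-purified piRISC carrying one synthetic guide, with or without 500 nM GTSF1 partner protein, in HEPES–potassium acetate buffer at 33 °C for 0–8 or 0–960 min. After three trials were pooled and k3 was capped at 0.0001 min^-1, the pre-steady-state cleavage rate was obtained from a burst-and-steady-state fit.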
Take UCCUGGAUGUCCUUGCAUACUAAUUAGUUA: the “pre-steady-state target cleavage rate” value turned out to be 0.00135 ± 0.0046. As to UCCUGGUACUCGUUGCAUAGUAUUUAGUUA, the “pre-steady-state target cleavage rate” value is 0.00247 ± 0.0043. Take “UCCUGGAUGUCCUUGCAUAGUUAAAUCAAA [g10:g19:cont:t1A]”: the “pre-steady-state target cleavage rate” value stood at 0.00044 ± 0.011.

In the case of UCCUGGAUGUCCUUGACAUAGUAUUUAGUUA, the “pre-steady-state target cleavage rate” value turned out to be 0.00145 ± 0.0045. On to UCCUCCUACAGCUUGCAUAGUAUUUACAAA, for which the “pre-steady-state target cleavage rate” value worked out at 0.00211 ± 0.0034. Under UCCUGGAUCAGGAUGCAUAGUAUUUACAAA stands 0.000472 ± 0.0083; under UCCUCCUACAGCUUCCAUAGUAUUUUCAAA, 0.000562 ± 0.01.

For the sequence UCCUGCUACUCCUUGCAUAGUAUUUUCAAA, the “pre-steady-state target cleavage rate” value was 0.000946 ± 0.0055. Consider UCCUGGAACAGCUUCCAUAGUAUAUAGUUA, for which the “pre-steady-state target cleavage rate” value stood at 0.000695 ± 0.0074. UCCUGGAUGUCCUUGCAUAGUAUAAUGUUA: the “pre-steady-state target cleavage rate” value is 0.00195 ± 0.0035.

Take UCCUGGAUGUGCUUGCUAUGUAUUUAGAAA: the “pre-steady-state target cleavage rate” value came out at 0.00112 ± 0.0051.

As for UCCUGGAUCUCCUUGCAUAGUAUUUAGAAA, the “pre-steady-state target cleavage rate” value was 0.000908 ± 0.0064.

Regarding UCCUGGAUCAGCAACCAUAGUAUUUAGUUA, the “pre-steady-state target cleavage rate” value is 0.00181 ± 0.0033.

Turning to UCCUGGUACAGGUUCCAUAGUAUUUAGUUA, the “pre-steady-state target cleavage rate” value was 0.00218 ± 0.0049. As for UCCUGGAUCAGCUUCCAUAGUUUUUAGUUA, the “pre-steady-state target cleavage rate” value amounted to 0.000419 ± 0.015.

With UCCUGCUACAGCUUCCAUAGUUUUUAGUUA, the “pre-steady-state target cleavage rate” value turned out to be 0.00107 ± 0.0046.

For UCCUGCUACAGCUUGCAUAGUAUUGUAGUUA, the “pre-steady-state target cleavage rate” value turned out to be 0.00114 ± 0.0077. For UCCUCCUACAGCUUCCAUAGUAUUAAGUUA, the “pre-steady-state target cleavage rate” value came to 0.000431 ± 0.012. The value for “UCCUGGAUGUCGUUGCAUAGAUAAAUCAAA [g11:g18:cont:t1A]” was 0.00048 ± 0.0086; that for UCCUGGAUGUCGAACCUAUAGUAUUUAGUUA was 0.00192 ± 0.0032. Turning to UCCUGCUACAGGAUGCAUAGUAUUUUCAAA, the “pre-steady-state target cleavage rate” value was 0.000457 ± 0.011. The value for UCCUGGAUGUGCUAGCAUAGUAUUUAGAUA was 0.00104 ± 0.0065; that for UCCUGGAACAGCUUGCAUAGUUAUUUCAAA was 0.000561 ± 0.01.

UCCUGGAUCAGCUUGCAUUCAAUUUUCAAA: the “pre-steady-state target cleavage rate” value stood at 0.000586 ± 0.0094. Turning to UCCUGGUACAGCUUGCAUAGUUAAUAGAAA, the “pre-steady-state target cleavage rate” value was found to be 0.000671 ± 0.011. As to UCCUGGAUGUCGAUGCAUAUAUUUAGUUA, the “pre-steady-state target cleavage rate” value is 0.000665 ± 0.0067. Take UCCUGGAACAGCUUGCAAUCUAUUUUCAAA: the “pre-steady-state target cleavage rate” value turned out to be 0.000141 ± 0.016.

As for UCCUGGAUGAGCUUGCAUAGUAAAUAGUAA, the “pre-steady-state target cleavage rate” value worked out at 0.00102 ± 0.0064. On to UCCUGCUACAGCUUGCAUAGUUAUUAGUAA, for which the “pre-steady-state target cleavage rate” value amounted to 0.000886 ± 0.0068. As for UCCUGGAUGUCGAUGCAUAGUAUUUUGUAA, the “pre-steady-state target cleavage rate” value is 0.000658 ± 0.0076. For UCCUCCUACAGCAAGCAUAGUAUUUAGAAA, the “pre-steady-state target cleavage rate” value was found to be 0.00162 ± 0.004. With UCCUGGAUGUCCUUGCAUUCAAUUUAGUAA, the “pre-steady-state target cleavage rate” value was found to be 0.000423 ± 0.013. With UCCUGGAACAGCUUGCUAAGUAUUUACAAA, the “pre-steady-state target cleavage rate” value came to 0.00105 ± 0.0048. On to UCCUGGAUGUCCUUGCAGUAGUAUUUAGUUA, for which the “pre-steady-state target cleavage rate” value turned out to be 0.00146 ± 0.0046.

Consider UCCUGGUACAGCUACGAUAGUAUUUACAAA, for which the “pre-steady-state target cleavage rate” value turned out to be 0.000667 ± 0.0088. Under UCCUGCAUGAGCUUGCAUAGUAUUUACAAA stands 0.0017 ± 0.0029; under “UCCUGGAACAGCUUGCAUAGUUAAAUCAAA [g10:g23:cont:t1A]”, 0.000865 ± 0.0064. For the sequence UCCUGGAUGUCCUUGCAUACUAUUUAGUAA, the “pre-steady-state target cleavage rate” value stood at 0.000947 ± 0.0046.
